The other results are listed elsewhere or left out.

The test concerns the target T1, OsSMF1 (Oryza sativa, UniProt Q6ZLB0 1-436).
T1 sequence: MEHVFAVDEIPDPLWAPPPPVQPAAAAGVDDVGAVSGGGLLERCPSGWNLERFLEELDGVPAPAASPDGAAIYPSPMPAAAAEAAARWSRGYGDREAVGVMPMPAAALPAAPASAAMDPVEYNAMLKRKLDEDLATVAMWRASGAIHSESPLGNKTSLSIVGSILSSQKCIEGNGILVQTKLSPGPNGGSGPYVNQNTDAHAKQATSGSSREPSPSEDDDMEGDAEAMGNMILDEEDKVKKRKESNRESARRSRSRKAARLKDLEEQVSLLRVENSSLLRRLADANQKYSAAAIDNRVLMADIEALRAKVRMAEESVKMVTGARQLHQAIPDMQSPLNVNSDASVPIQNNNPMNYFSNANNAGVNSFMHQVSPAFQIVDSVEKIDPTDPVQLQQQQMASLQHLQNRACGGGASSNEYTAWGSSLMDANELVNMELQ
Nature of the test: protein-binding microarray (RPBM); PBS, 2% BSA, 51.3 ng/ul salmon testes DNA, 50 uM zinc acetate, 200 nM TF, 25 C, 1 h; high values mean tight binding. To be noted: protein: recombinant; tags: N-terminal polyhistidine and DsRed monomer fusion (pET32a); chain copies: 2; label: CyDye5-dUTP incorporated in the synthesized complementary strand; 3' TTTTT single-stranded linker to array surface; dsDNA, one strand shown. The method, boiled down: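 Transcription factors were each fused at the N-terminus to a polyhistidine tag plus DsRed and expressed in E. coli BL21-CodonPlus before Ni–NTA purification. Binding to a double-stranded custom Agilent array was carried out with 200 nM protein at 25 °C for 1 h in PBS, 2% BSA, salmon testes DNA and 50 µM zinc acetate. The binding signal is per-feature fluorescence intensity, in arbitrary units, on an Axon 4000B scanner.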
In the case of “GTGGATCTGGCTAGCCCATCACTGTGCTAGCAACCAACCTCGGAGTCACCTAGTGCAG”, the binding signal is 4650 fluorescence intensity (a.u.).

On to “ACTCCTACTCGACACGGAGTCGGCCTCGTCAGCCAGCTATCGGAGTCACCTAGTGCAG”, for which the binding signal was 4590 fluorescence intensity (a.u.).

As to “GAGACGAGGCGACGGCGACGACAGCGACAGCGCCGTGGCACGGAGTCACCTAGTGCAG”, the binding signal is 29900 fluorescence intensity (a.u.).

In the case of “ATATAGTATTGGTTGTGTATGTATGTAGTATCTCATTAGCCGGAGTCACCTAGTGCAG”, the binding signal is 3390 fluorescence intensity (a.u.).

With “TCTTCTATTATATTGACGTGTATTTCTTTTAGCGTGTTAGCGGAGTCACCTAGTGCAG”, the binding signal was 10400 fluorescence intensity (a.u.).

Turning to “CTAAGGCCATGAACAGTACTCGTACGTGGCGATTGTCTCCCGGAGTCACCTAGTGCAG”, the binding signal is 3620 fluorescence intensity (a.u.).

“AAATCCAAAATGCTTTAGGAGATGACTCATCTTAAAACAACGGAGTCACCTAGTGCAG”: the binding signal was 5430 fluorescence intensity (a.u.).

For the sequence “TCAAAGATTTGACAATGCCACTTGTGCGAGGAGCCGATTCCGGAGTCACCTAGTGCAG”, the binding signal was 3170 fluorescence intensity (a.u.).

Consider “TATATATATATATATATATAAAGTGTATGACATGTGATCACGGAGTCACCTAGTGCAG”, for which the binding signal was 3970 fluorescence intensity (a.u.).

“AGTTGGGCTTGTCCTGATGAGCTGCATTGGCGTGGTTTGGCGGAGTCACCTAGTGCAG”: the binding signal was 3370 fluorescence intensity (a.u.).

“TAGATACGGCGGATGTGATTAGTATTCGAGATGACGCACGCGGAGTCACCTAGTGCAG”: the binding signal is 3700 fluorescence intensity (a.u.).

For “GCTCAGCATCATCAGCTGCCACCACAGCTAGCTAGCCATACGGAGTCACCTAGTGCAG”, the binding signal was 4150 fluorescence intensity (a.u.).

“CCCCGTACACGTAGGACTTGTTTACTTTGCTACTATTTTCCGGAGTCACCTAGTGCAG”: the binding signal was 7140 fluorescence intensity (a.u.).

For the sequence “CATGTCGACATGTTCACAAGCGGTACCAAGAGTCAAGACACGGAGTCACCTAGTGCAG”, the binding signal is 45800 fluorescence intensity (a.u.).

With “ATGAAGAAATTAAACTTTTCAAGCGTGACAGGTGTCATCCCGGAGTCACCTAGTGCAG”, the binding signal was 5950 fluorescence intensity (a.u.).

As to “GTTTGTTATTGTCCATTTTAAATGTCGACTACATCAGCCCCGGAGTCACCTAGTGCAG”, the binding signal was 3540 fluorescence intensity (a.u.).

As for “TGCAACTTGGGAAGACTATGACGTACTCCCTATTTGTCAACGGAGTCACCTAGTGCAG”, the binding signal is 6230 fluorescence intensity (a.u.).

For “GGGTTTGTGTTACATTATCGAGATCACCGATGATGGATGTCGGAGTCACCTAGTGCAG”, the binding signal was 3610 fluorescence intensity (a.u.).

As to “TCCGTTGGATAAATGGATGCTCTCATCTAAGTCACCCAGGCGGAGTCACCTAGTGCAG”, the binding signal was 16100 fluorescence intensity (a.u.).

Turning to “CGTCCGTAGATGCCAGCGGGGCGGCCCGCCGGATGTGGAGCGGAGTCACCTAGTGCAG”, the binding signal was 4200 fluorescence intensity (a.u.).

Regarding “GTTAGAAGTTTAGAACTCTCATCCTCTATAGCCGTGTTTACGGAGTCACCTAGTGCAG”, the binding signal is 3570 fluorescence intensity (a.u.).

Take “GACAATAGGAAAACGATCATCAATCATGACTATCACTGTTCGGAGTCACCTAGTGCAG”: the binding signal was 3960 fluorescence intensity (a.u.).

For the sequence “CCGCCCTCCCCTTATCCCTTGTCGCCGCCGCCGCGTGGCCCGGAGTCACCTAGTGCAG”, the binding signal is 4430 fluorescence intensity (a.u.).

Consider “CTCGGAGTAAGTTCATCACCTTCCTGTAGACTATATTCATCGGAGTCACCTAGTGCAG”, for which the binding signal is 3360 fluorescence intensity (a.u.).

For “ATGGCTGATTCTGAGTTTACAACAATTATTTAAATACATACGGAGTCACCTAGTGCAG”, the binding signal was 3820 fluorescence intensity (a.u.).

As for “AGTATGTATGTTTATTTTAGCTGACGTGGCAATATAGTCACGGAGTCACCTAGTGCAG”, the binding signal was 22700 fluorescence intensity (a.u.).

Take “CTAATGGGACTGCTGCTACCCTATCTTTAGTCCGGGACTACGGAGTCACCTAGTGCAG”: the binding signal is 3270 fluorescence intensity (a.u.).

In the case of “CTGTTTAATTAGTGTCAGCTCCCACGTCTGTTCCGTGCTGCGGAGTCACCTAGTGCAG”, the binding signal is 5650 fluorescence intensity (a.u.).

With “GGTTCGTCAACAAGGTCAGGGGCGGCGGCCGGGGCGGAGCCGGAGTCACCTAGTGCAG”, the binding signal is 3530 fluorescence intensity (a.u.).

Regarding “CGTCGCCGACTGTTCATGTCAGCGCGGCTGACGCTGCTTGCGGAGTCACCTAGTGCAG”, the binding signal was 5160 fluorescence intensity (a.u.).

Take “TTATTTGGATTATTAAACTAGTTGTTTGTTACTAATAGTTCGGAGTCACCTAGTGCAG”: the binding signal is 22800 fluorescence intensity (a.u.).

“CAAACACGCAATATCAAAGTACACGAGGGGTCTACGTGGACGGAGTCACCTAGTGCAG”: the binding signal was 6950 fluorescence intensity (a.u.).

“GTGTTCCTCAAGGAGCGTTGTCACGCTACAACGTGATGGTCGGAGTCACCTAGTGCAG”: the binding signal was 3840 fluorescence intensity (a.u.).

Consider “TCGTGGTGGTGGTGGTGGTGCAGCTTTTGCTTGCGTGCGACGGAGTCACCTAGTGCAG”, for which the binding signal was 4450 fluorescence intensity (a.u.).

Turning to “CACTCTATTCCGTTGTTGCATAAAAGTAAAGATTACGTAACGGAGTCACCTAGTGCAG”, the binding signal is 3760 fluorescence intensity (a.u.).

Take “AGTTGGAGGGCACGGACTCCGGAGGCGTCACCCGCGGGAGCGGAGTCACCTAGTGCAG”: the binding signal is 3580 fluorescence intensity (a.u.).

As to “TTCTACGCTCTCACGTGGCCCATTGAATTCACCGTGTGGCCGGAGTCACCTAGTGCAG”, the binding signal is 3440 fluorescence intensity (a.u.).

For “CCACAGGAGAGGACGCACGTCAAGTGGTCGTCGACGAGACCGGAGTCACCTAGTGCAG”, the binding signal was 3550 fluorescence intensity (a.u.).

Turning to “TAGCCCGTCACTGATGAGTCATCTGTGACGGGCCTAGCTGCGGAGTCACCTAGTGCAG”, the binding signal is 11500 fluorescence intensity (a.u.).

Take “ATCATAAATACGTGCAAAATTTCACCATACCAATATTAACCGGAGTCACCTAGTGCAG”: the binding signal was 28500 fluorescence intensity (a.u.).

Regarding “TCTTTGCAAGGATTTTGAACAGTCAGCAGTGCACAAACAACGGAGTCACCTAGTGCAG”, the binding signal is 4940 fluorescence intensity (a.u.).

“GTATGGAGCTCCCTCCTCGCCCGCCTTCCCTCGCTCTCGGCGGAGTCACCTAGTGCAG”: the binding signal is 23100 fluorescence intensity (a.u.).

On to “TAACTGCGTTGACTGTACCCAGATCAGTTTGCTAAACGTTCGGAGTCACCTAGTGCAG”, for which the binding signal is 3600 fluorescence intensity (a.u.).

Regarding “GCTACCAGCCCACGTGCCACTACAGTAGCCGTGCCGGCCCCGGAGTCACCTAGTGCAG”, the binding signal was 4970 fluorescence intensity (a.u.).

“AGGAGACGAGAGAGAGAGAGGGGAGGGGAGTGTGATGTGGCGGAGTCACCTAGTGCAG”: the binding signal was 8030 fluorescence intensity (a.u.).

As to “ATGTAATCTAGAATATGTCATATCCCTCCAAAATCATCTACGGAGTCACCTAGTGCAG”, the binding signal is 3600 fluorescence intensity (a.u.).

Consider “CCTACCAGTTGAGCTATCCACTGTTTCTAGTCAGCATATTCGGAGTCACCTAGTGCAG”, for which the binding signal is 4620 fluorescence intensity (a.u.).

As to “ATAAGGGAAGCCGCATCAGAATTTACGATGCCGATAACGGCGGAGTCACCTAGTGCAG”, the binding signal is 3700 fluorescence intensity (a.u.).

On to “CACTCACAAGAGAGTAAGTGAGCTAGCGAGTCACAGGTTTCGGAGTCACCTAGTGCAG”, for which the binding signal was 3690 fluorescence intensity (a.u.).

As for “CTAAGTGACACCTCACTCCAACTTTAAGGACCGGCTGTGTCGGAGTCACCTAGTGCAG”, the binding signal was 5750 fluorescence intensity (a.u.).

Regarding “GTGTCCTCAATTGAATTGACTCAATTCAATGGCTACCATACGGAGTCACCTAGTGCAG”, the binding signal was 4900 fluorescence intensity (a.u.).

“CCGGCGGGTGAGAAAAGTTTCGGGCGGGGTCAGCGACGGTCGGAGTCACCTAGTGCAG”: the binding signal is 3670 fluorescence intensity (a.u.).

Turning to “GACCGACTTTGACATCAGTAGAACACTAGTTGCCACATGTCGGAGTCACCTAGTGCAG”, the binding signal is 3450 fluorescence intensity (a.u.).

In the case of “TCGAAGGATCAAAATCGGATTCGGTGTCAACTTAAGGGACCGGAGTCACCTAGTGCAG”, the binding signal was 15500 fluorescence intensity (a.u.).

(Values after article PMC7819943, “Rice protein-binding microarrays: a tool to detect cis-acting elements near promoter regions in rice”.)
